In the supplement of paper PMC7024190 one finds log data, which are given here for 73 molecules.

Counter-ions that a name gives are not always drawn. This is one part of the list. Repeats in this data set agree poorly, so a single value says little.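 The cells were human embryonic kidney cells carrying a Renilla luciferase gene, driven by the HSV-TK promoter, on a plasmid put in briefly by transfection. This is the first-round screen of about ten thousand compounds, looking for ones that raise reporter output.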

For this assay, the system named is HEK 293FT. As to the kind of experiment: log relative Renilla luciferase luminescence (reporter expression vs reference, reference not stated) (log (base not stated)); higher = higher recombinant reporter expression. The settings on record: 10 µM; time after transfection 48 h.
Turning to `CC(=O)Oc1cccc(C)c1` [meta-cresyl acetate], the log was -0.165. The figure for `Cc1cc(O)c2c(O)c3c(O)cccc3cc2c1` [chrysarobin] is 0.102; for `C=CCSCC1Nc2cc(Cl)c(S(N)(=O)=O)cc2S(=O)(=O)N1` (stereo not drawn) [althiazide] it is -0.144; for `Cc1cc(-c2ccc(/N=N/c3ccc4c(S(=O)(=O)O)cc(S(=O)(=O)O)c(N)c4c3O)c(C)c2)ccc1/N=N/c1ccc2c(S(=O)(=O)O)cc(S(=O)(=O)O)c(N)c2c1O` [evans blue] it is -0.133. In the case of `c1ccc(CN(CC2=NCCN2)c2ccccc2)cc1` [antazoline phosphate] it was -0.549; in that of `COc1cc(/C=C/C(=O)N2CCCCCCC2)cc(OC)c1OC` [cinoctramide], 0.0237. In the case of `NC(=O)NS(=O)(=O)c1ccc(N)cc1` [sulfacarbamide] it was 0.121; in that of `CC(=O)N(CC(O)CN(C(C)=O)c1c(I)c(C(=O)NCC(O)CO)c(I)c(C(=O)NCC(O)CO)c1I)c1c(I)c(C(=O)NCC(O)CO)c(I)c(C(=O)NCC(O)CO)c1I` (stereo not drawn) [iodixanol], 0.0992. With `COc1cc(O)ccc1C(C)=O` [isopeonol], the log is -0.0271. In the case of `CC(=O)OCC(=O)[C@H]1CC[C@H]2[C@@H]3CCC4=CC(=O)CC[C@]4(C)[C@H]3CC[C@]12C` [desoxycorticosterone acetate] it was 0.0927; in that of `N=C(N)NCCN1CCCCCCC1` [guanethidine monosulfate], 0.104; in that of `CC(C)CCCC(C)NC(C)C` (stereo not drawn) [iproheptine], 0.0431. The figure for `C#C[C@]1(O)CC[C@H]2[C@@H]3CCC4=CC(=O)CC[C@@H]4[C@H]3CC[C@@]21CC` [levonorgestrel] is -0.05. In the case of `CC(CN(C)C)CN1c2ccccc2Sc2ccccc21` (stereo not drawn) [trimeprazine tartrate] it was 0.00182; in that of `CC1(C)[C@@H](OC(=O)CCC(=O)O)CC[C@]2(C)[C@H]3C(=O)C=C4[C@@H]5C[C@@](C)(C(=O)O)CC[C@]5(C)CC[C@@]4(C)[C@]3(C)CC[C@@H]12` [carbenoxolone sodium], -0.123. For `C=CCOC(Cn1ccnc1)c1ccc(Cl)cc1Cl` (stereo not drawn) [enilconazole], the log came to 0.177. The figure for `O=C(/C=C/c1ccc(O)c(O)c1)O[C@@H]1C[C@](O)(C(=O)O)C[C@@H](O)[C@H]1O` [chlorogenic acid] is 0.103. The figure for `CC[C@@H](CO)NCCN[C@@H](CC)CO` [ethambutol hydrochloride] is 0.137; for `C[C@]1(Cn2ccnn2)[C@H](C(=O)O)N2C(=O)C[C@H]2S1(=O)=O` [tazobactam] it is -0.171; for `CC(=O)OCC(=O)[C@@]1(OC(C)=O)[C@@H](C)C[C@H]2[C@@H]3C[C@H](F)C4=CC(=O)C=C[C@]4(C)[C@@]3(F)[C@@H](O)C[C@@]21C` [diflorasone diacetate] it is -0.024. For the molecule `Nc1ccccc1C(=O)CC(N)C(=O)O` (stereo not drawn) [kynurenine], the log was determined as 0.0883. The figure for `CCN(CC)CCOCCOC(=O)C(CC)(CC)c1ccccc1` [oxelaidin citrate] is 0.0613; for `CCCOc1ccc(C(=O)OCCN(CC)CC)cc1N` [proparacaine hydrochloride] it is -0.0606.

With `CCCCC1(COC(=O)CCC(=O)O)C(=O)N(c2ccccc2)N(c2ccccc2)C1=O` [suxibuzone], the log was -0.00598. The figure for `COc1cc(NC(C)CCCN)c2ncccc2c1` (stereo not drawn) [primaquine phosphate] is 0.0682; for `CC1=C(/C=C/C(C)=C/C=C/C(C)=C\C(=O)O)C(C)(C)CCC1` [isotretinon] it is -0.433; for `CC/C(=C(/CC)c1ccc(O)cc1)c1ccc(O)cc1` [diethylstilbestrol] it is -0.114. With `Cl.N=C(N)NCCC[C@H](N)C(=O)O` [arginine hydrochloride], the log came to 0.054. In the case of `COc1cc(O)c2c(=O)c(O)c(-c3ccccc3)oc2c1` [izalpinin] it was -0.0908; in that of `CSc1ccc2c(c1)N(CCC1CCCCN1C)c1ccccc1S2` (stereo not drawn) [thioridazine hydrochloride], 0.0583; in that of `NC(N)=Nc1nc(CSCC/C(N)=N/S(N)(=O)=O)cs1` [famotidine], 0.112.

As to `Cc1cc(-c2ccccc2)nnc1NCCN1CCOCC1` [minaprine hydrochloride], the log is -0.0225. Turning to `COc1ccc(-c2cc(=O)c3c(OC(C)=O)cc(OC(C)=O)cc3o2)cc1` [acacetin diacetate], the log amounted to 0.168. In the case of `COC1(C)CCC2OC2(C)CCC2C1CC2(C)C` (stereo not drawn) [2-methoxy-5 (6)epoxy-tetrahydrocaryophyllene] it was 0.345. `CN(C)[C@@H]1C(O)=C(C(N)=O)C(=O)[C@@]2(O)C(O)=C3C(=O)c4c(O)cccc4[C@@](C)(O)[C@H]3[C@H](O)[C@@H]12` [oxytetracycline]: the log is -0.216.

As to `CC(=O)NCCc1ccc(O)c(-c2c(O)c(O)c3c(c2O)C(=O)c2c(cc(O)c(C(=O)O)c2C(=O)O)C3=O)c1` [laccaic acid a], the log is -0.0552. Take `Cc1ccsc1/C=C/C1=NCCCN1C` [morantel citrate]: the log is 0.135.

Turning to `CCCCCCCCCCCCCCCCOP(=O)([O-])OCC[N+](C)(C)C` [miltefosine], the log came out at 0.126. The figure for `CN(C)c1ccc(O)c2c1C[C@H]1C[C@H]3[C@H](N(C)C)C(O)=C(C(N)=O)C(=O)[C@@]3(O)C(O)=C1C2=O` [minocycline hydrochloride] is -0.00497; for `COc1cc(OC)c2c(=O)c(-c3ccc4c(c3)OCO4)coc2c1` [derrustone] it is 0.104. In the case of `Nc1nc(NC2CC2)c2ncn([C@H]3C=C[C@@H](CO)C3)c2n1` [abacavir sulfate] it was -0.0112; in that of `CCOc1ccc2nc3cc(N)ccc3c(N)c2c1` [ethacridine lactate], -0.42; in that of `CCN(CC)CCNc1ccc(CO)c2sc3ccccc3c(=O)c12` [hycanthone], 0.0786. The figure for `O=c1c(O)cc([C@H]2Oc3cc(O)cc(O)c3C[C@H]2O)cc2c([C@H]3Oc4cc(O)cc(O)c4C[C@H]3O)cc(O)c(O)c12` [theaflavin] is 0.163; for `O=C(COc1ccc(Cl)cc1)N1CCN(Cc2ccc3c(c2)OCO3)CC1` [fipexide hydrochloride] it is -0.0538.

In the case of `N[C@@H](Cc1ccc(O)cc1)C(=O)O` [tyrosine], the log was -0.271. In the case of `CC(C)(C)CC(C)(C)c1ccc(O)c(Cc2ccc(Cl)cc2Cl)c1` [clofoctol] it was 0.102. In the case of `C[C@H]1[C@H](C)CC[C@]2(C(=O)O)CC[C@]3(C)C(=CC[C@@H]4[C@@]5(C)C[C@@H](O)[C@H](O)[C@@](C)(CO)[C@@H]5CC[C@]43C)[C@H]12` [asiatic acid] it was 0.0707; in that of `CCN(CC)CCOC(=O)C(c1ccccc1)c1ccccc1` [adiphenine hydrochloride], 0.00408; in that of `CC(C)CCCC(C)C1CCC2C3=CCC4CC(O)CCC4(C)C3CCC21C` (stereo not drawn) [lathosterol], -0.176.

Turning to `C[C@]12CC[C@@H]3c4ccc(OS(=O)(=O)O)cc4CC[C@H]3[C@@H]1CCC2=O` [estropipate], the log is -0.0162. The figure for `COc1cccc(OC)c1C(=O)N[C@@H]1C(=O)N2[C@@H]1SC(C)(C)[C@@H]2C(=O)O` [methicillin sodium] is 0.234; for `Cc1ccc(S(=O)(=O)NC(=O)NN2CCCCCC2)cc1` [tolazamide] it is 0.0161.

Regarding `O=C(O)[C@H]1O[C@@H](Oc2cc3oc(-c4ccccc4)cc(=O)c3c(O)c2O)[C@H](O)[C@@H](O)[C@@H]1O` [baicalin], the log was 0.102. With `Nc1ccc(S(=O)(=O)Nc2ccccn2)cc1` [sulfapyridine], the log was 0.124. In the case of `CO[C@H]1C[C@H](O[C@H]2[C@H](C)[C@@H](O[C@@H]3O[C@H](C)C[C@H](N(C)C)[C@H]3O)[C@@H](C)C[C@@]3(CO3)C(=O)[C@H](C)[C@@H](O)[C@@H](C)[C@@H](C)OC(=O)[C@@H]2C)O[C@@H](C)[C@@H]1O` [oleandomycin phosphate] it was -0.704; in that of `O=c1[nH]c(=O)c2ccccc2o1` [carsalam], -0.106. The figure for `Nc1ccn([C@@H]2O[C@H](CO)[C@@H](O)[C@@H]2O)c(=O)n1` [cytarabine] is -0.378.

With `COc1ccnc(C[S+]([O-])c2nc3cc(OC(F)F)ccc3[nH]2)c1OC` (stereo not drawn) [pantoprazole], the log worked out at 0.0384. As for `O=C(O)[C@H](O)[C@@](O)(Cc1ccc(O)cc1)C(=O)O` [piscidic acid], the log turned out to be 0.172.

As to `CC(=O)N[C@@H](C=O)[C@@H](O)[C@H](O)[C@H](O)CO` [acetylglucosamine], the log stood at 0.0426. The figure for `O=c1[nH]cnc2c1ncn2[C@@H]1O[C@H](CO)[C@@H](O)[C@H]1O` [inosine] is 0.0977; for `CCCCOc1cc(CC2CNC(=O)N2)ccc1OC` (stereo not drawn) [4-(3-butoxy-4-methoxybenzyl)imidazolidin-2-one] it is 0.000294; for `CC(C)Cn1c(=O)n(C)c(=O)c2[nH]cnc21` [3-isobutyl-1-methylxanthine (ibmx)] it is 0.129. In the case of `COc1cc([C@@H]2c3cc4c(cc3[C@@H](O[C@@H]3O[C@@H]5CO[C@@H](c6cccs6)O[C@H]5[C@H](O)[C@H]3O)[C@H]3COC(=O)[C@H]23)OCO4)cc(OC)c1O` [teniposide] it was -1.16; in that of `O=c1ccc2ccccc2o1` [coumarin], -0.0673. In the case of `NCCOB(c1ccccc1)c1ccccc1` [aminoethoxydiphenylborane] it was 0.118; in that of `CC1(C)C=Cc2cc3ccc(=O)oc3cc2O1` [xanthyletin], 0.0394; in that of `CN(C)CCCN1c2ccccc2Sc2ccc(Cl)cc21` [chlorpromazine], -0.107. `CCOC(=O)c1c(C)cc(O)cc1O` [orsellinic acid, ethyl ester]: the log was -0.151. The figure for `COc1cc(O)c2c(=O)cc(-c3ccc(O)cc3)oc2c1` [genkwanin] is 0.116; for `O=c1ccn([C@@H]2O[C@H](COP(=O)(O)OP(=O)(O)OP(=O)(O)O)[C@@H](O)[C@H]2O)c(=O)[nH]1` [uridine triphosphate trisodium] it is -0.0595; for `Cc1nc(-c2ccc(OCC(C)C)c(C#N)c2)sc1C(=O)O` [febuxostat] it is 0.117.
